Source: US4416826A, “Peresters and use thereof” (priority 1980, dated 1983)

Assay: Photolysis of peresters and analysis of photoproducts
Assay type: physicochemical
Conditions: for deuterium incorporation in recovered perester: NMR; for Norrish type II reaction / competing ketone photoreactions: irradiation; for deuterium incorporation in mesityl phenyl ketone product: mass spectrometry
Protocol: The amount of perester used is in the range of 300-500 mg. The solutions are placed in Pyrex tubes, flushed with nitrogen for 10 min., and sealed with a rubber cap.
After the irradiation, the yield of CO2 is measured by applying N2 pressure and trapping the CO2 with a Ba(OH)2 solution. The photolyzed solutions are evaporated (in the case of perester Ia treatment with excess diazomethane gives the best separation procedure) and again evaporated. Chromatography over 2 mm silica gel plates (E. Merck) with dichloromethane as the developing solvent separates the products. Extraction of the silica gel is done with ether. The identity of each sample is confirmed by GLC or high-pressure LC by comparison with authentic samples or by melting points of the solids.
This is shown by comparison with an authentic sample and combination of spectroscopic techniques. […] The same product is formed when 4-benzoylbenzoic acid is irradiated for 2 hours in CH3 OH in 26% yield. The structure of this secondary photoproduct is shown by independent synthesis (reduction of methyl 4-benzoylbenzoate by NaBH4). Among other secondary photoproducts found in small amounts is a mixture of pinacols. These are confirmed by synthesis of a similar pinacol mixture upon irradiation of methyl 4-benzoylbenzoate in isopropyl alcohol.
After photolysis of tert-butyl-4-(2',4',6'-trimethylbenzoyl)perbenzoate (1c) (300 mg in 20 mL of CH3 OH) for 1 hour, the following products are found: 14.1% of CO2, 15.6% of phenyl mesityl ketone, 56.6% of starting perester, and 21.8% of the corresponding acid.
The recovered perester is irradiated again in cyclohexane solution (25 mL) for 4 hours. The following products are found: carbon dioxide, 44%; bicyclohexyl (21 mg); mesityl phenyl ketone (52%); and the corresponding acid, 46%.
After photolysis of tert-butyl-.rho.-butyrylperbenzoate (1e) (1 mmol in 30 mL of CH3 OH) for about 85 minutes, the following products are found: carbon dioxide, 11%; butyrophenone, 10% (confirmed by high-pressure LC): methyl .rho.-butyrylbenzoate (25%) (mp 83°-85° C. from hexane) confirmed by independent synthesis); and .rho.-butyrylbenzoic acid (52%) (confirmed by preparation of the methyl ester).

[1] = cyclohexane, 2.4 × 10^-2 M, 6 h, 300 nm
[2] = methanol, 2.4 × 10^-2 M, 1 h, 300 nm
[3] = CH3 OH^d, […] 10^-2 M, 1 h, 300 nm
[4] = cyclohexane, 2.0 × 10^-2 M, 2.5 h, 300 nm
[5] = cyclohexane, 2.2 × 10^-2 M, 4 h, 300 nm
[6] = methanol, 4.2 × 10^-2 M, 1 h, 300 nm
[7] = 1 mmol in 30 mL of CH3 OH, about 85 minutes
[8] = methanol, 3.3 × 10^-2 M, 1.5 h, 300 nm
[9] = 300 mg in 20 mL of CH3 OH, 1 hour
[10] = recovered perester, cyclohexane (25 mL), 4 hours

Which benzophenone product [1] does the source give for CC(C)(C)OOC(=O)c1ccc(C(=O)c2ccccc2)cc1 [Ia, t-Butyl-4-Benzoylperbenzoate] here?
The benzophenone product was 36 mol %.

What about the benzoylbenzoic acid product [1] of the same compound?
Its benzoylbenzoic acid product is 55 mol %.

What about the unreacted perester [1] of the same compound?
Its unreacted perester is 0 mol %.

What about the secondary photolysis products (irradiation in cyclohexane) of the same compound?
The secondary photolysis products was “bicyclohexyl as a secondary photolysis product”.

And the benzophenone product [2]?
Its benzophenone product is 29 mol %.

And the benzoylbenzoic acid product [2]?
The benzoylbenzoic acid product was 60 mol %.

What about the unreacted perester [2] of the same compound?
The unreacted perester was 0 mol %.

Which “yield of photoproduct C6 H5 CHOH--p-C6 H4 COOH” value (irradiated for 2 hours in CH3 OH) does the source give for O=C(O)c1ccc(C(=O)c2ccccc2)cc1 [4-benzoylbenzoic acid, reference compound] here?
Its value is 26%.

With Cc1cc(C)c(C(=O)c2ccc(C(=O)OOC(C)(C)C)cc2)c(C)c1 [Ib, Tert-butyl-4-(2',4',6'-trimethylbenzoyl)perbenzoate] as the compound, how does the benzophenone product [3] read?
The benzophenone product was 16 mol %.

And the benzoylbenzoic acid product [3]?
Its benzoylbenzoic acid product is 21 mol %.

And the unreacted perester [3]?
The unreacted perester was 57 mol %.

What about the “deuterium incorporation in recovered perester” value of the same compound?
The value was “nor is there any deuterium in the recovered Ib; also recorded: no deuterium incorporation is observed”.

What about the benzophenone product [4] of the same compound?
Its benzophenone product is 20 mol %.

What about the benzoylbenzoic acid product [4] of the same compound?
The benzoylbenzoic acid product was 27 mol %.

What about the unreacted perester [4] of the same compound?
Its unreacted perester is 29 mol %.

What about the benzophenone product [5] of the same compound?
Its benzophenone product is 43 mol %.

And the benzoylbenzoic acid product [5]?
The benzoylbenzoic acid product was 46 mol %.

What about the unreacted perester [5] of the same compound?
Its unreacted perester is 0 mol %.

And the “Norrish type II reaction / competing ketone photoreactions” value?
The value was “photochemical perester decomposition from Ib is faster than is the intramolecular hydrogen abstraction”.

And the “deuterium incorporation in mesityl phenyl ketone product” value?
The value was “produces no deuterated mesitoyl”.

What about the benzophenone product [6] of the same compound?
The benzophenone product was 19 mol %.

And the benzoylbenzoic acid product [6]?
The benzoylbenzoic acid product was 13 mol %.

And the unreacted perester [6]?
The unreacted perester was 61 mol %.

Which results are given for CCCC(=O)c1ccc(C(=O)OOC(C)(C)C)cc1 [Ie, Tert-butyl-.rho.-butyrylperbenzoate]?
butyrophenone found after photolysis [7]: 10%; carbon dioxide found after photolysis [7]: 11%; methyl p-butyrylbenzoate found after photolysis [7]: 25%; p-butyrylbenzoic acid found after photolysis [7]: 52%; Norrish type II reaction / competing ketone photoreactions: no evidence for a competing Norrish type II reaction; Norrish type II reaction / competing ketone photoreactions (listed as 1e): No products of a Norrish type II reaction are found; benzophenone product (corresponding ketone) [8]: 10 mol %; benzoylbenzoic acid product (corresponding acid) [8]: 52 mol %; unreacted perester [8]: 0 mol %

Which “CO2 found after photolysis” value [9] does the source give for Cc1cc(C)c(C(=O)c2ccc(C(=O)OOC(C)(C)C)cc2)c(C)c1 [1c, Tert-butyl-4-(2',4',6'-trimethylbenzoyl)perbenzoate] here?
The value was 14.1%.

And the “corresponding acid found after photolysis” value [9]?
Its value is 21.8%.

What about the “phenyl mesityl ketone found after photolysis” value [9] of the same compound?
Its value is 15.6%.

And the “starting perester found after photolysis” value [9]?
Its value is 56.6%.

What about the “deuterium incorporation in recovered perester” value of the same compound?
The value was “no deuterium incorporation”.

And the “deuterium incorporation in mesityl phenyl ketone product” value?
Its value is “No deuterium incorporation”.

And the “bicyclohexyl found after photolysis” value [10]?
The value was 21 mg.

What about the “carbon dioxide found after photolysis” value [10] of the same compound?
Its value is 44%.

And the “corresponding acid found after photolysis” value [10]?
Its value is 46%.

And the “mesityl phenyl ketone found after photolysis” value [10]?
Its value is 52%.

Entries after “also recorded” stand apart in the source; their conditions may differ.
